These are yes or no findings as the source states them, for the method shown. Binding seen in cells or lysates may run through a third protein. Some entries that bind do so weakly or less than the wild type.

The target in this assay is V5-Beclin-1, Q14457. In words: co-IP. As to conditions: remark: other sources report otherwise.

B1: Ambra-1, Q9C0C7 1-1298 (protein)
chain: MKVVPEKNAVRILWGRERGARAMGAQRLLQELVEDKTRWMKWEGKRVELPDSPRSTFLLAFSPDRTLLASTHVNHNIYITEVKTGKCVHSLIGHRRTPWCVTFHPTISGLIASGCLDGEVRIWDLHGGSESWFTDSNNAIASLAFHPTAQLLLIATANEIHFWDWSRREPFAVVKTASEMERVRLVRFDPLGHYLLTAIVNPSNQQGDDEPEIPIDGTELSHYRQRALLQSQPVRRTPLLHNFLHMLSSRSSGIQVGEQSTVQDSATPSPPPPPPQPSTERPRTSAYIRLRQRVSYPTAECCQHLGILCLCSRCSGTRVPSLLPHQDSVPPASARATTPSFSFVQTEPFHPPEQASSTQQDQGLLNRPSAFSTVQSSTAGNTLRNLSLGPTRRSLGGPLSSHPSRYHREIAPGLTGSEWTRTVLSLNSRSEAESMPPPRTSASSVSLLSVLRQQEGGSQASVYTSATEGRGFPASGLATESDGGNGSSQNNSGSIRHELQCDLRRFFLEYDRLQELDQSLSGEAPQTQQAQEMLNNNIESERPGPSHQPTPHSSENNSNLSRGHLNRCRACHNLLTFNNDTLRWERTTPNYSSGEASSSWQVPSSFESVPSSGSQLPPLERTEGQTPSSSRLELSSSASPQEERTVGVAFNQETGHWERIYTQSSRSGTVSQEALHQDMPEESSEEDSLRRRLLESSLISLSRYDGAGSREHPIYPDPARLSPAAYYAQRMIQYLSRRDSIRQRSMRYQQNRLRSSTSSSSSDNQGPSVEGTDLEFEDFEDNGDRSRHRAPRNARMSAPSLGRFVPRRFLLPEYLPYAGIFHERGQPGLATHSSVNRVLAGAVIGDGQSAVASNIANTTYRLQWWDFTKFDLPEISNASVNVLVQNCKIYNDASCDISADGQLLAAFIPSSQRGFPDEGILAVYSLAPHNLGEMLYTKRFGPNAISVSLSPMGRYVMVGLASRRILLHPSTEHMVAQVFRLQQAHGGETSMRRVFNVLYPMPADQRRHVSINSARWLPEPGLGLAYGTNKGDLVICRPEALNSGVEYYWDQLNETVFTVHSNSRSSERPGTSRATWRTDRDMGLMNAIGLQPRNPATSVTSQGTQTLALQLQNAETQTEREVPEPGTAASGPGEGEGSEYGASGEDALSRIQRLMAEGGMTAVVQREQSTTMASMGGFGNNIIVSHRIHRSSQTGTEPGAAHTSSPQPSTSRGLLPEAGQLAERGLSPRTASWDQPGTPGREPTQPTLPSSSPVPIPVSLPSAEGPTLHCELTNNNHLLDGGSSRGDAAGPRGEPRNR
For the molecule B1, the binding entry is listed as “binds”.

(Values after paper PMC6143786.)
